Measured values from US20200283482A1 (BicycleRD Limited, priority 2017, published 2020).

experiment: general procedure: Fmoc solid-phase peptide synthesis; Chlorotrityl (CTC) resin, 1.1 mmol/g; HBTU/DIPEA; settings: conjugation step

Substance	conjugation yield	final purity (method not given)
PEPTIDE1{[capI-7].[bAla].[Sar].[Sar].[Sar].[Sar].[Sar].[Sar].[Sar].[Sar].[Sar].[Sar].A.C.[dA].N.E.[1Nal].[dA].C.E.D.F.Y.D.[tBuGly].C.[am]}|CHEM1{[TBMB]}$PEPTIDE1,CHEM1,14:R3-1:R1|PEPTIDE1,CHEM1,20:R3-1:R2|PEPTIDE1,CHEM1,27:R3-1:R3$$$V2.0	40.1%	97.47%
PEPTIDE1{[capI-17].[bAla].[Sar].[Sar].[Sar].[Sar].[Sar].[Sar].[Sar].[Sar].[Sar].[Sar].A.C.[dA].N.E.[1Nal].[dA].C.E.D.F.Y.D.[tBuGly].C.[am]}|CHEM1{[TBMB]}$PEPTIDE1,CHEM1,14:R3-1:R1|PEPTIDE1,CHEM1,20:R3-1:R2|PEPTIDE1,CHEM1,27:R3-1:R3$$$V2.0	30.9%	97.2%
PEPTIDE1{[capI-23].[bAla].[Sar].[Sar].[Sar].[Sar].[Sar].[Sar].[Sar].[Sar].[Sar].[Sar].A.C.[dA].N.E.[1Nal].[dA].C.E.D.F.Y.D.[tBuGly].C.[am]}|CHEM1{[TBMB]}$PEPTIDE1,CHEM1,14:R3-1:R1|PEPTIDE1,CHEM1,20:R3-1:R2|PEPTIDE1,CHEM1,27:R3-1:R3$$$V2.0	48.52% yield	93.76% purity
PEPTIDE1{[capI-24].[bAla].[Sar].[Sar].[Sar].[Sar].[Sar].[Sar].[Sar].[Sar].[Sar].[Sar].A.C.[dA].N.E.[1Nal].[dA].C.E.D.F.Y.D.[tBuGly].C.[am]}|CHEM1{[TBMB]}$PEPTIDE1,CHEM1,14:R3-1:R1|PEPTIDE1,CHEM1,20:R3-1:R2|PEPTIDE1,CHEM1,27:R3-1:R3$$$V2.0	24.75% yield	95.2% purity
PEPTIDE1{[capI-25].[bAla].[Sar].[Sar].[Sar].[Sar].[Sar].[Sar].[Sar].[Sar].[Sar].[Sar].A.C.[dA].N.E.[1Nal].[dA].C.E.D.F.Y.D.[tBuGly].C.[am]}|CHEM1{[TBMB]}$PEPTIDE1,CHEM1,14:R3-1:R1|PEPTIDE1,CHEM1,20:R3-1:R2|PEPTIDE1,CHEM1,27:R3-1:R3$$$V2.0	30.43%	95.3%
PEPTIDE1{[capI-26].[bAla].[Sar].[Sar].[Sar].[Sar].[Sar].[Sar].[Sar].[Sar].[Sar].[Sar].A.C.[dA].N.E.[1Nal].[dA].C.E.D.F.Y.D.[tBuGly].C.[am]}|CHEM1{[TBMB]}$PEPTIDE1,CHEM1,14:R3-1:R1|PEPTIDE1,CHEM1,20:R3-1:R2|PEPTIDE1,CHEM1,27:R3-1:R3$$$V2.0	38.9% yield	94.0% purity
PEPTIDE1{[capI-27].[bAla].[Sar].[Sar].[Sar].[Sar].[Sar].[Sar].[Sar].[Sar].[Sar].[Sar].A.C.[dA].N.E.[1Nal].[dA].C.E.D.F.Y.D.[tBuGly].C.[am]}|CHEM1{[TBMB]}$PEPTIDE1,CHEM1,14:R3-1:R1|PEPTIDE1,CHEM1,20:R3-1:R2|PEPTIDE1,CHEM1,27:R3-1:R3$$$V2.0	64.82%	95.6%
PEPTIDE1{[capI-28].[bAla].[Sar].[Sar].[Sar].[Sar].[Sar].[Sar].[Sar].[Sar].[Sar].[Sar].A.C.[dA].N.E.[1Nal].[dA].C.E.D.F.Y.D.[tBuGly].C.[am]}|CHEM1{[TBMB]}$PEPTIDE1,CHEM1,14:R3-1:R1|PEPTIDE1,CHEM1,20:R3-1:R2|PEPTIDE1,CHEM1,27:R3-1:R3$$$V2.0	13.11%	98.23%
PEPTIDE1{[capI-29].[bAla].[Sar].[Sar].[Sar].[Sar].[Sar].[Sar].[Sar].[Sar].[Sar].[Sar].A.C.[dA].N.E.[1Nal].[dA].C.E.D.F.Y.D.[tBuGly].C.[am]}|CHEM1{[TBMB]}$PEPTIDE1,CHEM1,14:R3-1:R1|PEPTIDE1,CHEM1,20:R3-1:R2|PEPTIDE1,CHEM1,27:R3-1:R3$$$V2.0	22.98%	86.1%
PEPTIDE1{[capI-30].[bAla].[Sar].[Sar].[Sar].[Sar].[Sar].[Sar].[Sar].[Sar].[Sar].[Sar].A.C.[dA].N.E.[1Nal].[dA].C.E.D.F.Y.D.[tBuGly].C.[am]}|CHEM1{[TBMB]}$PEPTIDE1,CHEM1,14:R3-1:R1|PEPTIDE1,CHEM1,20:R3-1:R2|PEPTIDE1,CHEM1,27:R3-1:R3$$$V2.0	13.67%	97.0%
PEPTIDE1{[capI-31].[bAla].[Sar].[Sar].[Sar].[Sar].[Sar].[Sar].[Sar].[Sar].[Sar].[Sar].A.C.[dA].N.E.[1Nal].[dA].C.E.D.F.Y.D.[tBuGly].C.[am]}|CHEM1{[TBMB]}$PEPTIDE1,CHEM1,14:R3-1:R1|PEPTIDE1,CHEM1,20:R3-1:R2|PEPTIDE1,CHEM1,27:R3-1:R3$$$V2.0	24.41%	97.3%
PEPTIDE1{[capI-32].[bAla].[Sar].[Sar].[Sar].[Sar].[Sar].[Sar].[Sar].[Sar].[Sar].[Sar].A.C.[dA].N.E.[1Nal].[dA].C.E.D.F.Y.D.[tBuGly].C.[am]}|CHEM1{[TBMB]}$PEPTIDE1,CHEM1,14:R3-1:R1|PEPTIDE1,CHEM1,20:R3-1:R2|PEPTIDE1,CHEM1,27:R3-1:R3$$$V2.0	10.86%	96.6%
PEPTIDE1{[capI-33].[bAla].[Sar].[Sar].[Sar].[Sar].[Sar].[Sar].[Sar].[Sar].[Sar].[Sar].A.C.[dA].N.E.[1Nal].[dA].C.E.D.F.Y.D.[tBuGly].C.[am]}|CHEM1{[TBMB]}$PEPTIDE1,CHEM1,14:R3-1:R1|PEPTIDE1,CHEM1,20:R3-1:R2|PEPTIDE1,CHEM1,27:R3-1:R3$$$V2.0	26.72%	95.1%

HELM strings list residues between dots; [ac] is acetyl, [am] amide, other brackets name non-standard units.
